Measurements taken from patent US20050069542A1 (Human Genome Sciences, published 2005).
These are yes or no findings as the source states them, for the method shown. Some entries that bind do so weakly or less than the wild type.

The chains behind the UniProt entries cited, without tags or fusion partners. Where a name states a change or a piece, a line headed by the entry shows the natural chain unless it says otherwise.
UniProt Q9HD89: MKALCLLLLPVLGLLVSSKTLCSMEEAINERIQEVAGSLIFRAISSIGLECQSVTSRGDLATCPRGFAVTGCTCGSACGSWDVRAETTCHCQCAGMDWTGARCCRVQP

B1: GMBC651 (scFv)
scFv: EVQLVESGGGLVQPGGSLRLSCAASGFTFSDAWMNWVRQAPGKGLEWVGRIKSKGSGGTIDYAAPVKDRFTISRDDSKNTLYLQMNSLKTEDTALYYCTWDWDFYYGMNVWGRGTMVTVSSGGGGSGGGGSGGGGSQSVLTQPASVSGSPGQSITISCTGTSSDVGGYNYVSWYQQHPGKAPKLMIYEGSKRPSGVSNRFSGSKSGNTASLTISGLQAEDEADYYCSSYTTRSTRVFGGGTKLTVLG
B2: GMBC654 (scFv)
scFv: EVQLVETGGGLVEPGGSLRLSCAASGFTFSDAWMNWVRQAPGKGLEWVGRIKSKRSGGTIDYAAPVKDRFTISRDDSKNTLYLQMNSLKIEDTALYYCTWDWDFYYGMNVWGKGTTVTVSSGGGGSGGGGSGGGGSQSVLTQPASVSGSPGQSITISCTGTSSDVGGYNYVSWYQQHPGKAPKLMIYEGSKRPSGVSNRFSGSKSGNTASLTISGLQAEDEADYYCSSYTTRSTRVFGGGTKLTVLG
B3: GMBC658 (scFv)
scFv: EVQLVQSGGGLVKPGGSLRLSCAASGFTFSDAWMNWVRQAPGKGLEWVGRIKSKGSGGTIDYAAPVKDRFTISRDDSKNTLYLQMNSLKTEDTALYYCTWDWDFYYGMNVWGRGTTVTVSSGGGGSGGGGSGGGGSQSVLTQPASVSGSPGQSITISCTGTSSDVGGYNYVSWYQQHPGKAPKLMIYEGSKRPSGVSNRFSGSKSGNTASLTISGLQAEDEADYYCSSYTTRSTRVFGGGTKLTVLG
B4: GMBC660 (scFv)
scFv: EVQLVQSGGGLVKPGGSLRLSCAASGFIFSDAWMNWVRQAPGKGLEWVGRIKSKGSGGTIDYAAPVKDRFTISRDDSKNTLYLQMNSLKTEDTALYYCTWDWDFYYGMNVWGQGTPVTVSSGGGGSGGGGSGGGGSQSVLTQPASVSGSPGQSITISCTGTSSDVGGYNYVSWYQQHPGKAPKLMIYEGSKRPSGVSNRFSGSKSGNTASLTISGLQAEDEADYYCSSYTTRSTRVFGGGTKLTVLG
B5: GMBC664 (scFv)
scFv: EVQLVETGGALVKPGGSLRLSCAASGFTFSDAWMNWVRQAPGKGLEWVGRIKSKGSGGTIDYAAPVKDRFTISRDDSKNTLYLQMNSLKTEDTALYYCTWDWDFYYGMNVWSRGTMVTVSSGGGGSGGGGSGGGGSQSVLTQPASVSGSPGQSITISCTGTSSDVGGYNYVSWYQQHPGKAPKLMIYEGSKRPSGVSNRFSGSKSGNTASLTISGLQAEDEADYYCSSYTTRSTRVFGGGTKLTVLG
B6: GMBC667 (scFv)
scFv: QVQLQESGGGLVKPGGSLRLSCAGSGFPFSDAWMNWVRQAPGKGLEWVGRIKSKGSGGTIDYAAPVKDRFRISRDDSKNTLYLQMNSLNIEDTALYYCTWDWDFYYGMNVWGQGTTVTVSSGGGGSGGGGSGGGGSQSVLTQPASVSGSPGQSITISCTGTSSDVGGYNYVSWYQQHPGKAPKLMIYEGSKRPSGVSNRFSGSKSGNTASLTISGLQAEDEADYYCSSYTTRSTRVFGGGTKLTVLG
B7: GMBC670 (scFv)
scFv: EVQLVETGGGLVKPGGSLRLSCVASGFTFSDAWMNWVRQAPGKGLEWVGRIKSKGSGGTIDYAAPVKDRFIISRDDSKNTLYLQVNSLKTEDTALYYCTWDWDFYYGMNVWGQGTLVTVSSGGGGSGGGGSGGGGSQSVLTQPASVSGSPGQSITISCTGTSSDVGGYNYVSWYQQHPGKAPKLMIYEGSKRPSGVSNRFSGSKSGNTASLTISGLQAEDEADYYCSSYTTRSTRVFGGGTKLTVLG
B8: GMBC672 (scFv)
scFv: QVQLVQSGGGLVKPGGSLRLSCAASGFTFSDAWMNWVRQAPGKGLEWVGRIKSKGSGGTIDYAAPVKDRFTISRDDSKNTLYLQMNSLKTEDTALYYCTWDWDFYYGMNVWGQGTLVTVSSGGGGSGGGGSGGGGSQSVLTQPASVSGSPGQSITISCTGTSSDVGGYNYVSWYQQHPGKAPKLMIYEGSKRPSGVSNRFSGSKSGNTASLTISGLQAEDEADYYCSSYTTRSTRVFGEGTKLTVLG
B9: GMBC676 (scFv)
scFv: EVQLVQSGGGLVQPGGSLRLSCAASGFTFSHAWMNWVRQAPGKGLEWVGRIKSKASGGTIDYAAPVKDRFTISRDDSKNTLYLHMNSLKTEDTALYYCTWDWDFYYGMNVWGRGTMVTVSSGGGGSGGGGSGGGGSQSVLTQPASVSGSPGQPITISCTGTSSDVGGYNYVSWYQQHPGKAPKLMIYEGSKRPSGVSNRFSGSKSGNTASLTISGLQAEDEADYYCSSYTTRSTRVFGGGTKLTVLG
B10: GMBC679 (scFv)
scFv: QVQLVESGGGLVKPGGSLRLSCAASGFTFSDAWMNWVRQAPGKGLEWVGRIKSKGSGGTTDYAAPVKDRFTISRDDSENTLYLQMNSLKTEDTAVYYCTWDHSYYYDMAVWGRGTLVTVSSGGGGSGGGGSGGGGSQSVLTQPASVSGSPGQSITISCTGTSSDVGGYNYVSWYQQHPGKAPKLVIYEGSKRPSGVSNRFSGSKSGNTASLTISGLQAEDEADYYCSSYTTRSTRVFGGGTKLTVLG
B11: GMBC684 (scFv)
scFv: QVQLVQSGGGLVKPGGSLRLSCAASGFKFSDAWMNWVRQAPGKGLEWVGRIKSKGSGGTIDYAAPVKDRFTISRDDSKNTLYLQMNSLKTEDTALYYCTWDWDFYYGMNVWGQGTPVTVSSGGGGSGGGGSGGGGSQSALTQPASVSGSPGQSITISCTGTSSDVGGYNYVSWYQQHPGKAPKLMIYEGSKRPSGVSNRFSGSKSGNTASLTISGLQAEDEADYYCSSYTTRSTRVFGGGTKLTVLG
B12: GMBC686 (scFv)
scFv: EVQLVQSGGGLVKPGGSLRLSCAASGFTFSDAWMNWVRQAPGKGLEWVGRIKSKGSGGTIDYAAPVKDRFTISRDDSKNTLYLQMNSLKTEDTALYYCTWDWDFYYGMNVWGQGTTVTVSSGGGGSGGGGSGGGGSQSVLTQPASVSGSPGQSITISCTGTSSDVGGYNYVSWYQQHPGKAPKLMIYEGSKRPSGVSNRFSGSKSGNTASLTISGLQAEDEADYYCSSYTTRSTRVFGGGTKLTVLG
B13: GMBC690 (scFv)
scFv: EVQLVQSGGGVVQPGRSLRLSCAASGFTFSDAWMNWVRQAPGKGLEWVGRIKSKGSGGTIDYAAPVKDRFTISRDDSKNTLYLQMNSLKTEDTALYYCTWDWDFYYGMNVWGRGTLVTVSSGGGGSGGGGSGGGGSQSVLTQPASVSGSPGQSITISCTGTSSDVGGYIYVSWYQQHPGRAPKLMIYEGSKRPSGVSNRFSGSKSGNTASLTISGLQAEDEADYYCSSYTTRSTRVFGGGTKLTVLG
B14: GMBC693 (scFv)
scFv: QVQLVESGGGLVKPGGSLRLSCAASGFTFSDAWMNWVRQAPGKGLEWVGRIKSKGSGGTIDYAAPVKDRFTISRDDSKNTLYLQMNSLKTEDTALYYCTWDWDFYYGMNVWGKGTLVTVSSGGGGSGGGGSGGGGSQSVLTQPASVSGSPGQSITISCTGTSSDVGGYNYVSWYQQHPGKAPKLMIYEGSKRPSGVSNRFSGSKSGDTASLTISGLQAEDEADYYCSSYTTRSTRVFGGGTKLTVLG
B15: GMBC727 (scFv)
scFv: EVQLVESGGDTVKPGGSLRLSCAGSGFTFSDAWMNWVRQAPGKGLEWVGRMKSKGSGGTRDYAAPVNGRFTISRDDSKNTLYLQMNSLNTEDTGVYYCTWDWDFYYGMNVWGRGTLVTVSSGGGGSGGGGSGGGGSQSVLTQPASVSGSPGQSITISCTGTSSDVGGYNYVSWYQQHPGKAPKLMIYEGSKRPSGVSNRFSGSKSGNTASLTISGLQAEDEADYYCSSYTTRSTRVFGGGTKLTVLG
B16: GMBC606 (scFv)
scFv: EVQLVQSGGGVVQPGGSLRLSCAASGFTFSSYGMHWVRQAPGKGLEWVAFIRYDGSNKYYADSVKGRFTISRDNSKNTLYLQMNSLRAEDTAVYYCAKSSSFANAFDIWGQGTTVTVSSGGGGSGGGGSGGGGSSELTQDPAVSVALGQTVRITCQGDSLRSYYASWYQQKPGQAPVLVIYGKNNRPSGIPDRFSGSSSGNTASLTITGAQAEDEADYYCNSRDSSGNHVVFGGGTKLTVLG
B17: GMBC725 (scFv)
scFv: EVQLVQTGGGVVQPGGSLRLSCAASGFTFSSYGMHWVRQAPGKGLEWVAFILYDGSNKYYADSVKGRFTISRDNSKNTLYLQMNSLRAEDTAVYYCAKSSSSASAFDIWRQRTTVTVSSGGGGSGGGGSGGGGSSELTQDPAVSVALGQTVRITCQGDSLRSYYASWYQQKPGQAPVLVIYGKNNRPSGIPDRFSGSSSGNTASLTITGAQAEDEADYYCNSRDSSGNHVVFGGGTKLTVLG
B18: GMBC608 (scFv)
scFv: EVQLVQSGGGLVQPGRSLRLSCAASGFTFSDSYMTWIRQAPGEGLEFVSYISSGSSTTYYTDSVKGRFTISRDNSKNTLYLQMNSLRPEDTAVYYCARRSISSDYYSYYLDVWGKGTLVTVSSGGGGSGGGGSGGGGSSELTQDPAVSVALGQTVRITCQGDSLRSYYASWYQQKPGQAPVLVIYGKNNRPSGIPDRFSGSSSGNTASLTITGAQAEDEADYYCNSRDSSGNHVVFGGGTKLTVLG
B19: GMBC609 (scFv)
scFv: QVQLVESGGGLVKPGESLRLSCEASGFEFNYAWMSWVRQAPGKGLEWVGRSRSEASGGTTDYAAPLQDRFTISRDDSKNTLYLQVNSLKIEDTGVYFCKWEKSEYYGMDVWGRGTPVTVSSGGGGSGGGGSGGGGSQSVLTQPPSVSAAPGQKVTISCSGSTSNIGNNYVSWYQQHPGKAPKLMIYDVSKRPSGVPDRFSGSKSGNSASLDISGLQSEDEADYYCAAWDDSLSEFLFGTGTKLTVLG

Columns and labels:
[1] = biological target: Flag-tagged recombinant human GMAD (human) (UniProt Q9HD89); experiment: phage ELISA
[2] = biological target: Flag-tagged recombinant human GMAD (human) (UniProt Q9HD89); experiment: phage display selection of scFvs

| Binder | binding [1] | binding [2] |
| --- | --- | --- |
| B1 | binds | binds |
| B2 | binds | binds |
| B3 | binds | binds |
| B4 | binds | binds |
| B5 | binds | binds |
| B6 | binds | binds |
| B7 | binds | binds |
| B8 | binds | binds |
| B9 | binds | binds |
| B10 | binds | binds |
| B11 | binds | binds |
| B12 | binds | binds |
| B13 | binds | binds |
| B14 | binds | binds |
| B15 | binds | binds |
| B16 | binds | binds |
| B17 | binds | binds |
| B18 | binds | binds |
| B19 | binds | binds |
